Measurements taken from PubChem BioAssay AID540256 (National Center for Advancing Translational Sciences (NCATS), 2011).
Screen size: about 300,000 compounds; about 3,700 (1.2%) were called active. Inconclusive results, whose numbers are uncertain, are shown with a selection of clear calls. Calls follow the shape of the full dose curve; tested in HEK293 cells. A potency beside an inconclusive call is a rough fit, not a confirmed value.

Assay: qHTS for Inhibitors of binding or entry into cells for Lassa Virus; also: nearly all actives have a fitted effect of over 50% in size
Details: Lassa virus pseudotype entry inhibition, cell reporter; activity change, negative = inhibition: at 37.9 µM (top of the series) unless noted
% is scaled to controls: 0 for no effect and ±100 for the full control effect; potency is read from the fitted curve at half-maximal effect.

Row | Compound | activity change, negative = inhibition | Potency
1 | CC(C)(C)OC(=O)N1CCOCCOCCNCCOCCOCC1 | inactive: -8.43% | 
2 | CCOC(=O)N1CCN(C(=O)c2ccc3nc4ccc(Cl)cc4c(=O)n3c2)CC1 |  | inconclusive: 16.4 µM [inhibitor, partial curve, poor fit]
3 | CC(C)OCc1cc(CN2CCN(c3cccc(C(F)(F)F)c3)CC2)c(O)c2ncccc12 |  | inconclusive: 3.55 µM [inhibitor, full curve, poor fit]
4 | CC(=O)Nc1nc(C2COc3ccccc3O2)cs1 (stereo not given) |  | inconclusive: 20.6 µM [inhibitor, partial curve, poor fit]
5 | O=C(NCCCN1CCCC1=O)c1ccc(OC(F)(F)F)cc1 |  | inconclusive: 4.47 µM [activator, partial curve, poor fit]
6 | COc1ccc(-c2cc(C(=O)N/N=C/c3cc(OC)c(OC)cc3OC)c3ccccc3n2)cc1 |  | inconclusive: 35.5 µM [inhibitor, single point]
7 | COC(=O)C(NC(=O)c1ccccc1C)(Nc1ncc(S(=O)(=O)c2ccc([N+](=O)[O-])cc2)s1)C(F)(F)F (stereo not given) |  | inconclusive: 29.1 µM [inhibitor, single point]
8 | O=C(O)CCc1nn2c3ccccc3nc2n(Cc2ccccc2)c1=O | inactive: -8% | 
9 | Cc1cccnc1NC(=O)c1cccc(S(=O)(=O)N2CCN(c3ccc(F)cc3)CC2)c1 |  | inconclusive: 2.82 µM [activator, partial curve]
10 | O=C1CN(C(=O)COC(=O)CNC(=O)c2ccc(Br)o2)c2ccccc2N1 | inactive: 1.94% [at 46.1 µM] | 
11 | CCOC(=O)C(=NCC1CCCO1)NNc1cc(Cl)ccc1Cl (stereo not given) | inactive: -8.54% | 
12 | O=C(CCC(=O)CCN1CCCCC1)CCN1CCCCC1 |  | inconclusive: 29.1 µM [inhibitor, single point]
13 | O=c1cc(-c2ccccc2)n2c(SCc3ccccc3Cl)nnc2[nH]1 | inactive: 27.6% [at 46.1 µM] | 
14 | Cc1ccc2oc(C(=O)N(Cc3sccc3C)C3CCS(=O)(=O)C3)c(C)c2c1 (stereo not given) |  | inconclusive: 15.8 µM [inhibitor, single point]
15 | O=C(Nc1ccc(Cl)cc1)c1ccc(-n2cccn2)c([N+](=O)[O-])c1 | inactive: -9.66% | 
16 | COc1ccccc1N1CCN(C(=O)CSc2ncnc3scc(-c4ccccc4)c23)CC1 |  | active: 6.31 µM
17 | CCOc1ccc(NC(=O)c2cc(S(=O)(=O)N3CCN(c4ccccc4F)CC3)ccc2F)cc1 | inactive: -4.12% [at 46.1 µM] | 
18 | CCCCCSc1nc(C)c(CC(=O)O)c(=O)[nH]1 | inactive: 19.5% | 
19 | Cc1ccc(S(=O)(=O)c2nc(-c3ccccc3Cl)oc2NCCCN2CCOCC2)cc1 |  | inconclusive: 17.8 µM [inhibitor, single point]
20 | Cc1cc(C)c2c(c1)/C(=C/C(=O)c1ccc(Br)s1)C(=O)N2 |  | inconclusive: 29.1 µM [inhibitor, partial curve, poor fit]
21 | Cc1cc(NC(=O)c2ccccc2)sc1C |  | inconclusive: 35.5 µM [inhibitor, single point]
22 | COc1ccc(S(=O)(=O)N(CC(=O)N2CCOCC2)Cc2ccccc2)cc1 |  | inconclusive: 0.0058 µM [inhibitor, full curve, poor fit]
23 | Cc1ccc(-c2noc(CSc3nnc(C)n3-c3ccc(C)c(C)c3)n2)cc1 |  | inconclusive: 3.55 µM [inhibitor, partial curve]

Part of the list above in order of molar mass, high to low.
Row | Compound | activity change, negative = inhibition | Potency
2 | CCOC(=O)N1CCN(C(=O)c2ccc3nc4ccc(Cl)cc4c(=O)n3c2)CC1 |  | inconclusive: 16.4 µM [inhibitor, partial curve, poor fit]
23 | Cc1ccc(-c2noc(CSc3nnc(C)n3-c3ccc(C)c(C)c3)n2)cc1 |  | inconclusive: 3.55 µM [inhibitor, partial curve]
18 | CCCCCSc1nc(C)c(CC(=O)O)c(=O)[nH]1 | inactive: 19.5% | 

(next part)

Row | Compound | activity change, negative = inhibition | Potency
24 | Cc1ccc(NC(=O)c2scc3c2CCCC3)cc1 |  | inconclusive: 4.47 µM [activator, single point]
25 | COc1ccc(Cl)cc1NC(=O)CSc1ccc2nnc(CCNS(=O)(=O)c3ccccc3)n2n1 | inactive: -9.96% [at 46.1 µM] | 
26 | N#C/C(=C\c1cccnc1)c1ccc([N+](=O)[O-])cc1 |  | inconclusive: 0.708 µM [activator, single point]
27 | Cc1cccc(Oc2ccc(NC(=O)c3ccccc3C(=O)O)cc2)c1C | inactive: 5% | 
28 | COc1ccc(C2=Nn3c(nnc3-c3ccccn3)SC2)cc1OC | inactive: -15.7% | 
29 | CCOc1ccc(-c2cc(C(=O)Nc3ccc4c(c3)OCCO4)c3ccccc3n2)cc1 | inactive: -15.3% | 
30 | CN1C(=O)c2cccc(NCCCN3C(=O)c4ccccc4C3=O)c2C1=O | inactive: -15.2% | 
31 | O=C1C(=O)N(C2CCN(C(=O)c3ccccc3F)CC2)CCN1Cc1ccc(F)cc1 |  | inconclusive: 35.5 µM [activator, single point]
32 | CCN(CC(=O)N1CCCC1)S(=O)(=O)c1ccc(Br)cc1 |  | inconclusive: 2.24 µM [inhibitor, partial curve, poor fit]
33 | NS(=O)(=O)c1cc2c(cc1Cl)NCNS2(=O)=O |  | inconclusive: 7.3 µM [activator, partial curve, poor fit]
34 | CCOc1ccc(N/C=C/C(=O)c2ccccc2)c([N+](=O)[O-])c1 |  | active: 1.12 µM
35 | COc1cc(C(=O)OCC(C)=O)ccc1OCc1c(C)noc1C | inactive: -12.1% | 
36 | Fc1cccc2sc(N3CCCC3)nc12 |  | inconclusive: 12.6 µM [activator, partial curve]
37 | Cc1cc(C)c(C#N)c(N2CCCC(C(N)=O)C2)n1 (stereo not given) | inactive: -5.64% | 
38 | CN(C)c1ccc(CNC(=O)C2CCN(Cc3cc4ccccc4n3Cc3ccccc3)CC2)cc1 |  | inconclusive: 35.5 µM [inhibitor, partial curve, poor fit]
39 | CCOC(=O)c1ccc(-c2ccc(/C=N/NC(=O)CN(c3ccccc3Br)S(C)(=O)=O)o2)cc1 | inactive: 13.9% | 
40 | Cc1onc(-c2ccccc2Cl)c1C(=O)Nc1sc2c(c1C(N)=O)CCC(C)C2 (stereo not given) |  | inconclusive: 13 µM [inhibitor, partial curve, poor fit]
41 | COc1ccc(C)c2sc(NC(=O)c3ccc(S(=O)(=O)N4CCCC4)cc3)nc12 |  | inconclusive: 2.82 µM [inhibitor, single point]
42 | O=C(Cc1ccc(Br)cc1)N1CCOCC1 |  | inconclusive: 4.47 µM [activator, full curve, poor fit]
43 | NC(N)=N/N=C/c1c(Cl)cccc1Cl |  | inconclusive: 0.259 µM [activator, full curve]
44 | COc1ccc(CN(C)CC(O)COc2ccc(-c3ccccc3)cc2)cc1OC (stereo not given) |  | inconclusive: 14.1 µM [inhibitor, partial curve, poor fit]
45 | Cc1nnsc1C(=O)NNc1ccc(C(C)(C)C)cc1 | inactive: -0.246% [at 46.1 µM] | 
